Results on two molecules are retold here after patent publication US20260167728A1 (published 2026).

These are yes or no findings as the source states them, for the method shown. A result given as binding can be weak or reduced; the word gives no strength.

The target of experiment [1] is cynomolgus monkey CD3 (cynomolgus monkey). In words: SPR Biacore 37 C.
Another experiment has as its target human CD3 (human). In words: SPR Biacore 37 C.

B1: AMX-525 (uTCE) (bispecific antibody)
chain: GTSESATPESDIQMTQSPSSLSASVGDRVTITCQASQDISNYLNWYQQKPGKAPKLLIYDASNLETGVPSRFSGSGSGTDFTFTISSLQPEDIATYYCQHFDHLPLAFGQGTKVEIKSESATPESGPGTSPGATPESGPGTSESATPQVQLQESGPGLVKPSETLSLTCTVSGGSVSSGDYYWTWIRQPPGKGLEWIGHIYYSGNTNYNPSLKSRVTISVDTSKNQFSLKLSSVTAADTAVYYCARDRVTGAFDIWGQGTLVTVSSGGGGSELVVTQEPSLTVSPGGTVTLTCRSSNGAVTSSNYANWVQQKPGQAPRGLIGGTNKRAPGTPARFSGSLLEGKAALTLSGVQPEDEAVYYCALWYPNLWVFGGGTKLTVLSESATPESGPGTSPGATPESGPGTSESATPEVQLVESGGGIVQPGGSLRLSCAASGFTFSTYAMNWVRQAPGKGLEWVGRIRTKRNDYATYYADSVKGRFTISRDDSKNTLYLQMNSLKTEDTAVYYCVRHENFGNSYVSWFAHWGQGTLVTVSSGTATPESGPG
notes: Fully unmasked metabolite; also called unmasked AMX-525; not shown: remnant of cleaved RSR-3213
With B1, the binding entry (in experiment [1]; with human CD3 (human)) was “binds” in each case.

B2: AMX-525 (bispecific antibody)
chain: ASSATPESGPGTSTEPSEGSAPGTSESATPESGPGSGPGTSESATPGTSESATPESGPGSEPATSGSETPGTSESATPESGPGTSTEPSEGSAPGSPAGSPTSTEEGTSESATPESGPGSEPATSGSETPGTSESATPESGPGSPAGSPTSTEEGSPAGSPTSTEEGTSTEPSEGSAPGTSESATPESGPGTSESATPESGPGTSESATPESGPGSEPATSGSETPGSEPATSGSETPGSPAGSPTSTEEGTSTEPSEGSAPGTSTEPSEGSAPGSEPATSGSETPGTSESATPEAGRSASHTPAGLTGPGTSESATPESDIQMTQSPSSLSASVGDRVTITCQASQDISNYLNWYQQKPGKAPKLLIYDASNLETGVPSRFSGSGSGTDFTFTISSLQPEDIATYYCQHFDHLPLAFGQGTKVEIKSESATPESGPGTSPGATPESGPGTSESATPQVQLQESGPGLVKPSETLSLTCTVSGGSVSSGDYYWTWIRQPPGKGLEWIGHIYYSGNTNYNPSLKSRVTISVDTSKNQFSLKLSSVTAADTAVYYCARDRVTGAFDIWGQGTLVTVSSGGGGSELVVTQEPSLTVSPGGTVTLTCRSSNGAVTSSNYANWVQQKPGQAPRGLIGGTNKRAPGTPARFSGSLLEGKAALTLSGVQPEDEAVYYCALWYPNLWVFGGGTKLTVLSESATPESGPGTSPGATPESGPGTSESATPEVQLVESGGGIVQPGGSLRLSCAASGFTFSTYAMNWVRQAPGKGLEWVGRIRTKRNDYATYYADSVKGRFTISRDDSKNTLYLQMNSLKTEDTAVYYCVRHENFGNSYVSWFAHWGQGTLVTVSSGTATPESGPGEAGRSASHTPAGLTGPATPESGPGTSESATPESGPGSPAGSPTSTEEGTSESATPESGPGSEPATSGSETPGTSESATPESGPGTSTEPSEGSAPGTSTEPSEGSAPGTSTEPSEGSAPGTSTEPSEGSAPGTSTEPSEGSAPGTSTEPSEGSAPGSPAGSPTSTEEGTSTEPSEGSAPGTSESATPESGPGSEPATSGSETPGTSESATPESGPGSEPATSGSETPGTSESATPESGPGTSTEPSEGSAPGTSESATPESGPGSPAGSPTSTEEGSPAGSPTSTEEGSPAGSPTSTEEGTSESATPESGPGTSTEPSEGSAPGTSESATPESGPGSEPATSGSETPGTSESATPESGPGSEPATSGSETPGTSESATPESGPGTSTEPSEGSAPGSPAGSPTSTEEGTSESATPESGPGSEPATSGSETPGTSESATPESGPGSPAGSPTSTEEGSPAGSPTSTEEGTSTEPSEGSAPGTSESATPESGPGTSESATPESGPGTSPSATPESGPGSEPATSGSETPGSEPATSGSETPGSPAGSPTSTEEGTSTEPSEGSAPGTSTEPSEGSAPGSEPATSGSETPGTSESAGEPEA
notes: Fully masked paTCE; also called AC4230; EGFR.37/CD3.318 paTCE
Take B2: the binding result (in experiment [1]; in the experiment with human CD3 (human)) was “binds” each time.
